# Percent effect of library compounds

The values are deposited in ChEMBL (CHEMBL3988442, “University of Dundee, Small-Polar-MMV Screening Library” (2021)).

Mtb cholesterol medium: 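Growth of Mycobacterium tuberculosis over 4 days (cholesterol / DPPC medium with tyloxapol); the read-out is not stated. Compounds at 500 µM. Higher reads as more growth inhibition (inferred: compounds with an IC50 in retests scored well above the rest). About 18,000 compounds were tested under these conditions; 5% (about 900) showed 50% or more at least once.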
Mtb glucose medium: 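Growth of Mycobacterium tuberculosis over 3 days (7H9 medium with glucose and tyloxapol); the read-out is not stated. Tested at 500 µM. The record gives no direction; compounds that gave an IC50 in retests scored well above the rest, so higher reads as more growth inhibition. About 18,000 compounds were tested under these conditions; 7.9% (about 1,400) showed 50% or more at least once.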

Results are given as percent effect. How 0% and 100% were set is not recorded. Most values in the screen are low, and negative values occur. The compounds are a random part of those screened.

Result for CCC(NC(=O)COCCOC)c1ccnn1C (stereo not drawn) was Mtb cholesterol medium: -5.929%; Mtb glucose medium: 9.937%.
Result for CNc1ncccc1F was Mtb cholesterol medium: -5.014%; Mtb glucose medium: -4.463%.
Result for COC(CNS(=O)(=O)N(C)C)c1cccc(Cl)c1 (stereo not drawn) was Mtb cholesterol medium: 11.1%; Mtb glucose medium: 38.54%.
Result for N#Cc1ncn(CCOCC2CC2)c1C#N was Mtb cholesterol medium: 2.6%; Mtb glucose medium: 7.646%.
Result for CSCCC(NC(=O)c1ccccc1)C(=O)NC(C)C (stereo not drawn) was Mtb cholesterol medium: -0.183%; Mtb glucose medium: 3.917%.
Result for CN[C@@H](CC(C)C)C(=O)NCCCc1csc(N)n1 was Mtb cholesterol medium: -4.13%; Mtb glucose medium: 0.5577%.
Result for Cc1ccsc1CN(C)C(=O)c1ccc(=O)n(C)c1 was Mtb cholesterol medium: 3.007%; Mtb glucose medium: 21.01%.
Result for Cc1cc(S(=O)(=O)N(C)Cc2nnc[nH]2)c(C)o1 was Mtb cholesterol medium: 12.34%; Mtb glucose medium: 21.78%.
Result for CCN1CCCCC1C(=O)N(C)CCn1cccn1 (stereo not drawn) was Mtb cholesterol medium: -7.851%; Mtb glucose medium: -5.272%.
Result for CCc1ncc(C(=O)NCCCNc2ccncc2)s1 was Mtb cholesterol medium: 1.149%; Mtb glucose medium: 15.39%.
Result for CC1CN(CCO)CCN1 (stereo not drawn) was Mtb cholesterol medium: 8.558%; Mtb glucose medium: 7.415%.
Result for CNc1cc(-c2cccc(OC)c2OC)nc(N)n1 was Mtb cholesterol medium: -5.72%; Mtb glucose medium: 10.99%.
Result for C[n+]1ccn(C(=O)N2CCCCC2)c1.[I-] was Mtb cholesterol medium: 15.16%; Mtb glucose medium: 10.87%.
Result for Cc1nnsc1CNC(=O)c1ccc2[nH]nnc2c1 was Mtb cholesterol medium: 1.761%; Mtb glucose medium: 35.07%.
Result for NC(=O)C(NC(=O)c1sccc1Br)c1ccccc1 (stereo not drawn) was Mtb cholesterol medium: 44.17%; Mtb glucose medium: 52.74%.
Result for CCN(CC)CCS(=O)(=O)c1ccccc1 was Mtb cholesterol medium: 71.3%; Mtb glucose medium: 93.96%.
Result for COc1cc(OC)cc(N2CC(N)CC2=O)c1 (stereo not drawn) was Mtb cholesterol medium: 5.484%; Mtb glucose medium: 36.87%.
Result for O=C1CN(C(=O)C2=Cc3cc(Cl)ccc3OC2)CCN1 was Mtb cholesterol medium: -3.883%; Mtb glucose medium: -3.107%.
Result for CN(CCN)CC1CCCOC1 (stereo not drawn) was Mtb cholesterol medium: -0.8931%; Mtb glucose medium: 4.23%.
Result for CN(C)CCCNS(=O)(=O)Cc1ccccc1F was Mtb cholesterol medium: -10.17%; Mtb glucose medium: -5.108%.
Result for COc1ccc(CC(=O)NCC2CCCNC2)cc1F (stereo not drawn) was Mtb cholesterol medium: -15.39%; Mtb glucose medium: -1.871%.
Result for Cc1cc(N2CCC3(CC2)OCCO3)n2ncnc2n1 was Mtb cholesterol medium: -21.6%; Mtb glucose medium: 0.8992%.
Result for c1cc(-c2nc3c([nH]2)CCNC3)c2cccnc2c1 was Mtb cholesterol medium: 2.626%; Mtb glucose medium: -1.159%.
Result for COC[C@@H]1CNC[C@H]1C(=O)NC1CC1 was Mtb cholesterol medium: -8.272%; Mtb glucose medium: -6.785%.
Result for CCOC(=O)C1(C(C)C)CCN(C(=O)c2cn[nH]c2)C1 (stereo not drawn) was Mtb cholesterol medium: -16.99%; Mtb glucose medium: -10.54%.
Result for CC(C)c1nccc(C(=O)N2C[C@H](C3CC3)[C@@H](N)C2)n1 was Mtb cholesterol medium: 14.46%; Mtb glucose medium: 18.36%.
Result for CCc1nnc(NC2CCOC3(CCOCC3)C2)o1 (stereo not drawn) was Mtb cholesterol medium: 9.765%; Mtb glucose medium: 10.49%.
Result for CN(Cc1ccccn1)Cc1csnn1 was Mtb cholesterol medium: 9.255%; Mtb glucose medium: 32.32%.
Result for c1nc(C2CCCCCN2)no1 (stereo not drawn) was Mtb cholesterol medium: 11.66%; Mtb glucose medium: 6.692%.

Some entries from above, unchanged:

Result for COC[C@@H]1CNC[C@H]1C(=O)NC1CC1 was Mtb cholesterol medium: -8.272%; Mtb glucose medium: -6.785%.
Result for Cc1nnsc1CNC(=O)c1ccc2[nH]nnc2c1 was Mtb cholesterol medium: 1.761%; Mtb glucose medium: 35.07%.